According to publication PMC10946806 (Chemistry (Weinheim an Der Bergstrasse, Germany), 2023):
Strings that start with PEPTIDE1 are HELM notation: dots part the residues, brackets hold end groups and non-standard residues. Non-standard residues stand in square brackets, D forms with d. Nle = CCCC[C@H](N)C(=O)O

Assay: general procedure: Fmoc solid-phase peptide synthesis; Rink amide ChemMatrix resin
Settings: whole synthesis; for final HPLC purity: analytical RP-HPLC

Row | Substance | isolated yield | final HPLC purity | final HPLC purity (hydrocarbon staple) | isolated yield (hydrocarbon staple)
1 | Ac-AKAYAR[Nle]GRALKEIAK-NH2 (SMILES CCCC[C@H](NC(=O)[C@H](CCCNC(=N)N)NC(=O)[C@H](C)NC(=O)[C@H](Cc1ccc(O)cc1)NC(=O)[C@H](C)NC(=O)[C@H](CCCCN)NC(=O)[C@H](C)NC(C)=O)C(=O)NCC(=O)N[C@@H](CCCNC(=N)N)C(=O)N[C@@H](C)C(=O)N[C@@H](CC(C)C)C(=O)N[C@@H](CCCCN)C(=O)N[C@@H](CCC(=O)O)C(=O)N[C@H](C(=O)N[C@@H](C)C(=O)N[C@@H](CCCCN)C(N)=O)[C@@H](C)CC) | 12% | 99% | – | –
2 | Ac-AKS7YAR(Nle)GRS7LKEIAK-NH2 | – | – | 98% | 3%
3 | FTU-Ahx-AKR7YAR(Nle)GRR7LKEIAK-NH2 | – | – | 96% | 4%
4 | FTU-Ahx-AKR8YAR(Nle)GRR8LKEIAK-NH2 | – | – | 96% | 3%
5 | FTU-Ahx-AKR8YAR(Nle)GRS8LKEIAK-NH2 | – | – | 97% | 5%
6 | FTU-Ahx-AKS5YAR(Nle)GRS5LKEIAK-NH2 | – | – | 98% | 2%
7 | FTU-Ahx-AKS6YAR(Nle)GRS6LKEIAK-NH2 | – | – | 95% | 3%
8 | FTU-Ahx-AKS8YAR(Nle)GRR8LKEIAK-NH2 | – | – | 97% | 3%
9 | PEPTIDE1{[FTU].[Ahx].A.K.A.Y.A.R.[Nle].G.R.A.L.K.E.I.A.K.[am]}$$$$V2.0 | 10% | 99% | – | –
10 | PEPTIDE1{[FTU].[Ahx].A.K.[R7].Y.A.R.[Nle].G.R.[S7].L.K.E.I.A.K.[am]}$PEPTIDE1,PEPTIDE1,5:R3-12:R3$$$V2.0 | 4% | 98% | – | –
11 | PEPTIDE1{[FTU].[Ahx].A.K.[S7H].Y.A.R.[Nle].G.R.[S7H].L.K.E.I.A.K.[am]}$PEPTIDE1,PEPTIDE1,5:R3-12:R3$$$V2.0 | 2% | 98% | – | –
12 | PEPTIDE1{[FTU].[Ahx].A.K.[S7].Y.A.R.[Nle].G.R.[S7].L.K.E.I.A.K.[am]}$PEPTIDE1,PEPTIDE1,5:R3-12:R3$$$V2.0 | 6% | 99% | – | –
